# Measured values from PMC10942865.
# Sequences of proteins named here, by UniProt entry; tags and fusion partners are left off.
# UniProt O94986: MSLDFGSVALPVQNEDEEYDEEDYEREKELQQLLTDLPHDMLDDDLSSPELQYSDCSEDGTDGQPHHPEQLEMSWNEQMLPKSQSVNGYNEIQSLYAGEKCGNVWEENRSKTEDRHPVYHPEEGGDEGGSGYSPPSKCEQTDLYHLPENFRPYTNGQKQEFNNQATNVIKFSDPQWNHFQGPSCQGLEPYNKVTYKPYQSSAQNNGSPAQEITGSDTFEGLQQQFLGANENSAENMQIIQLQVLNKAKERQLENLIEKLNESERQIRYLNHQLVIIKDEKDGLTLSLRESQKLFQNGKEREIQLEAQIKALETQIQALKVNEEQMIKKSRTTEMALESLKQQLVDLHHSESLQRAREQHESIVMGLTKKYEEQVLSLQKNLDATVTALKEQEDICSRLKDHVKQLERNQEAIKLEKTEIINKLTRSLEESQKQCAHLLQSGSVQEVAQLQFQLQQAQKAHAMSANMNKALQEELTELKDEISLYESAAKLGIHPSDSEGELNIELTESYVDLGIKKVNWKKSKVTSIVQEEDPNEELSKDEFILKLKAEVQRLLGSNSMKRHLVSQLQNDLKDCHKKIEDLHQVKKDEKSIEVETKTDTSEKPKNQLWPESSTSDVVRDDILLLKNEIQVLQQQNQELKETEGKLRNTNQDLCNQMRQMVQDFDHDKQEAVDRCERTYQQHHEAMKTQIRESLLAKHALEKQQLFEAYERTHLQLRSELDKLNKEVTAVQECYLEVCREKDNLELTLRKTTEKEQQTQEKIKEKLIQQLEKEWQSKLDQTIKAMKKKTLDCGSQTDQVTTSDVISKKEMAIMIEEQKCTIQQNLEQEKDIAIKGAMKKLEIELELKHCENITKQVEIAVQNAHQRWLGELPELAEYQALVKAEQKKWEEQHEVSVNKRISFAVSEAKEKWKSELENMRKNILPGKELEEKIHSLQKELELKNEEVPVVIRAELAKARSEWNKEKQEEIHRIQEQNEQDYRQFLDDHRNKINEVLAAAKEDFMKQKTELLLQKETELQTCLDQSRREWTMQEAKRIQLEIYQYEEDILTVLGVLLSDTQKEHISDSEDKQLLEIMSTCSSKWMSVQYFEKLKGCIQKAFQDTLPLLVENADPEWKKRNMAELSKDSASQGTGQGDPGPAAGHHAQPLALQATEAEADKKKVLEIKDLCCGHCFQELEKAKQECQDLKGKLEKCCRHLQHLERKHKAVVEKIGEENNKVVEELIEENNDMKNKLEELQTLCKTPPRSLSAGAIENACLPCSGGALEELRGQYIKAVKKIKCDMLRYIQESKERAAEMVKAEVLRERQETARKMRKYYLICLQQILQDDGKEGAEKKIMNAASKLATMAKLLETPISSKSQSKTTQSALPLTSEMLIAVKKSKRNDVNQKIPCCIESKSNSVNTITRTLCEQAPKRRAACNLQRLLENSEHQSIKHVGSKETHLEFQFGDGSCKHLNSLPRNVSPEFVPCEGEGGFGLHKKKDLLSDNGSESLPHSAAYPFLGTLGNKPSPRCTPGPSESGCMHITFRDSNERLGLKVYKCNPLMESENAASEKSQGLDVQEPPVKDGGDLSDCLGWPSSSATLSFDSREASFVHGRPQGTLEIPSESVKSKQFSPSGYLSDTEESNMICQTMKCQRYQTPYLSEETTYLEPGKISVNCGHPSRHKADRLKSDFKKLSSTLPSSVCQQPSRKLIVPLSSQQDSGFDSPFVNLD
# UniProt Q9Y4B6: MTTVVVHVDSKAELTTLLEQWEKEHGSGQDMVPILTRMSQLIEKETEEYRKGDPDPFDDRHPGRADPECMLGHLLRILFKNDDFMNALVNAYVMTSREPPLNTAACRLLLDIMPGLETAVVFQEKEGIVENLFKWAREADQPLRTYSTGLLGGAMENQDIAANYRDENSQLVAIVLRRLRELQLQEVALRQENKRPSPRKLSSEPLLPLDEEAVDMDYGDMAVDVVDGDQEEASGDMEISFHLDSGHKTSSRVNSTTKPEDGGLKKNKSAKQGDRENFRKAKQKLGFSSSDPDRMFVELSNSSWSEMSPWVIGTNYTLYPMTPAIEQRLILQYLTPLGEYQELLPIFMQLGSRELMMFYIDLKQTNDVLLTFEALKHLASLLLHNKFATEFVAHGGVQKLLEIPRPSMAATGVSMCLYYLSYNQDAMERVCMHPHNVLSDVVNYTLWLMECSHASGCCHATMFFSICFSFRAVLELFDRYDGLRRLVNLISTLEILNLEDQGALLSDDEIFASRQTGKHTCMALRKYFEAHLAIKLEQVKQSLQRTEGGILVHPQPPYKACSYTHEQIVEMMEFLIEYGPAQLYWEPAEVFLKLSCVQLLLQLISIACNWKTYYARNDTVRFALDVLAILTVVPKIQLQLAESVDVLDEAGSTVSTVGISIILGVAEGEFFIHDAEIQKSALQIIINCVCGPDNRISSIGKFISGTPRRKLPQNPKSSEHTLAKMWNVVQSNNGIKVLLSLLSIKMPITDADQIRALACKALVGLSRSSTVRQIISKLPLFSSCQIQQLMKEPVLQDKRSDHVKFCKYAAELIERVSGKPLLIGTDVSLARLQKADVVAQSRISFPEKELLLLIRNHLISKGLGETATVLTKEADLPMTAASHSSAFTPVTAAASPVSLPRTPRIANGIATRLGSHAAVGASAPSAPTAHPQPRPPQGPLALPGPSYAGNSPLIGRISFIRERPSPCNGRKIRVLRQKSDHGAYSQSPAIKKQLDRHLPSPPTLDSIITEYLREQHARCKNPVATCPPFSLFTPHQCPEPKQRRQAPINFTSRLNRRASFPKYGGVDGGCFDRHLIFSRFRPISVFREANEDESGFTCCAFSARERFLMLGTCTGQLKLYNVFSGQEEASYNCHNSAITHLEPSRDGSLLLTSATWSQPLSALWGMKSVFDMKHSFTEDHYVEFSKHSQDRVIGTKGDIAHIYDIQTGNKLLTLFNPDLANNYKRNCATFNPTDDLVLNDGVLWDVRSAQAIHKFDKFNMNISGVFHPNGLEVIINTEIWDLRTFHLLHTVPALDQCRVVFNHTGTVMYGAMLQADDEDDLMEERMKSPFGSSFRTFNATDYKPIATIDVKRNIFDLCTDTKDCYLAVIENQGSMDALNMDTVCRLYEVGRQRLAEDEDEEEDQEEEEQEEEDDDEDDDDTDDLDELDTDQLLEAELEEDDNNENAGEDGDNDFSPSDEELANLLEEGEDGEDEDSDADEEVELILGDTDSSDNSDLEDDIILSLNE
# UniProt Q96JK2: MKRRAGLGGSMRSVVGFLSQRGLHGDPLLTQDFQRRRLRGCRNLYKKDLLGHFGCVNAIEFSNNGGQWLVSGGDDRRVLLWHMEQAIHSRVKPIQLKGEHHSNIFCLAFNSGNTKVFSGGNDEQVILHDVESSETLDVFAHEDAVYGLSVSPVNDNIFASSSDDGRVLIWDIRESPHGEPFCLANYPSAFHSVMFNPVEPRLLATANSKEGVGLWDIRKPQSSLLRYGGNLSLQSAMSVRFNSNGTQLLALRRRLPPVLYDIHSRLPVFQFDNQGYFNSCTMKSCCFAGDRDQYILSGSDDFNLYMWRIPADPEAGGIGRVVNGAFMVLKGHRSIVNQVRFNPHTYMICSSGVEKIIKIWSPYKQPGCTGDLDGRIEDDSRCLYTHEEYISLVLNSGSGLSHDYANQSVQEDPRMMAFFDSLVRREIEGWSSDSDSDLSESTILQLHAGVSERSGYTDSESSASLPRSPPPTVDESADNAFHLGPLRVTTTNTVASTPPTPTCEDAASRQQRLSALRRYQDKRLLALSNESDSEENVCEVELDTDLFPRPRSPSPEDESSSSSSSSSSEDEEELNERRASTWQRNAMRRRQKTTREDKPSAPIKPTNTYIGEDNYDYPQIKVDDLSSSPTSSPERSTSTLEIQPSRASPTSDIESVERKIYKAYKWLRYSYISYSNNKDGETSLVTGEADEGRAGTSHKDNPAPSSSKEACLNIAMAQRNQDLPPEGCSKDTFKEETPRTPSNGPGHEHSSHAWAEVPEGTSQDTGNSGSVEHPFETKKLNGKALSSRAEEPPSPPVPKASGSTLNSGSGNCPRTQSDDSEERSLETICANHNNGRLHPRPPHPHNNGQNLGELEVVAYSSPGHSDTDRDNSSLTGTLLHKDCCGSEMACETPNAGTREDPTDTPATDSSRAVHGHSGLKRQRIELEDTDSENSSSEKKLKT
# UniProt Q16531: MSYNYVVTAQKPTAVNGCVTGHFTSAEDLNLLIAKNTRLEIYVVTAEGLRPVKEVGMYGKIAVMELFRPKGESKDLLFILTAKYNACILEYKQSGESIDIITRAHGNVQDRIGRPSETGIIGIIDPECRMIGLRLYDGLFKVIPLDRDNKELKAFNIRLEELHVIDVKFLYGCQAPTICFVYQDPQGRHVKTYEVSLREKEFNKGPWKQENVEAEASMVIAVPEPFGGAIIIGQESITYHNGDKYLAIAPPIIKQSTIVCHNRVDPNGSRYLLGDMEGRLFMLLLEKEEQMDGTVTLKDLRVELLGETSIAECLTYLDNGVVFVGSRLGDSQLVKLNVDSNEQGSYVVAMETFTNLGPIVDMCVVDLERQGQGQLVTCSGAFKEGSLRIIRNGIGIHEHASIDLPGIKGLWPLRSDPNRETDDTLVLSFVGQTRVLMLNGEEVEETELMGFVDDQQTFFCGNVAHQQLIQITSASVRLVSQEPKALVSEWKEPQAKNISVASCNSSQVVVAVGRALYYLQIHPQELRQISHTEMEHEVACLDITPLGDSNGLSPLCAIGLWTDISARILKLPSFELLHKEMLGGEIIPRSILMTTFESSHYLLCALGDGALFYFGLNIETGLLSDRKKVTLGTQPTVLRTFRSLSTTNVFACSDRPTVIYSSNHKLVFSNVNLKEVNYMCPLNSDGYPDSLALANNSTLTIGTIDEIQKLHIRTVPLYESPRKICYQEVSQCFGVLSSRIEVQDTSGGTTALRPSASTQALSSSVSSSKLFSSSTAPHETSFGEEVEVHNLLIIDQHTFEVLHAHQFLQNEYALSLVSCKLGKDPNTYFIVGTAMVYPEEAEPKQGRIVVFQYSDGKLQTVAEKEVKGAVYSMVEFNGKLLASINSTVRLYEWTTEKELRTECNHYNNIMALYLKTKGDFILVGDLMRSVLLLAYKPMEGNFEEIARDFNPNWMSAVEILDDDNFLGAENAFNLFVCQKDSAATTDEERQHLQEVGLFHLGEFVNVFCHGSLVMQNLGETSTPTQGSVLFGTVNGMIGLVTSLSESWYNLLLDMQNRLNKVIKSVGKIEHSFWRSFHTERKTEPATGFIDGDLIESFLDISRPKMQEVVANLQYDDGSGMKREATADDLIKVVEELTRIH
# Target: T1, Flag-PLK4 wt (polo-like kinase 4), full-length (human) (UniProt O00444)
# T1 sequence: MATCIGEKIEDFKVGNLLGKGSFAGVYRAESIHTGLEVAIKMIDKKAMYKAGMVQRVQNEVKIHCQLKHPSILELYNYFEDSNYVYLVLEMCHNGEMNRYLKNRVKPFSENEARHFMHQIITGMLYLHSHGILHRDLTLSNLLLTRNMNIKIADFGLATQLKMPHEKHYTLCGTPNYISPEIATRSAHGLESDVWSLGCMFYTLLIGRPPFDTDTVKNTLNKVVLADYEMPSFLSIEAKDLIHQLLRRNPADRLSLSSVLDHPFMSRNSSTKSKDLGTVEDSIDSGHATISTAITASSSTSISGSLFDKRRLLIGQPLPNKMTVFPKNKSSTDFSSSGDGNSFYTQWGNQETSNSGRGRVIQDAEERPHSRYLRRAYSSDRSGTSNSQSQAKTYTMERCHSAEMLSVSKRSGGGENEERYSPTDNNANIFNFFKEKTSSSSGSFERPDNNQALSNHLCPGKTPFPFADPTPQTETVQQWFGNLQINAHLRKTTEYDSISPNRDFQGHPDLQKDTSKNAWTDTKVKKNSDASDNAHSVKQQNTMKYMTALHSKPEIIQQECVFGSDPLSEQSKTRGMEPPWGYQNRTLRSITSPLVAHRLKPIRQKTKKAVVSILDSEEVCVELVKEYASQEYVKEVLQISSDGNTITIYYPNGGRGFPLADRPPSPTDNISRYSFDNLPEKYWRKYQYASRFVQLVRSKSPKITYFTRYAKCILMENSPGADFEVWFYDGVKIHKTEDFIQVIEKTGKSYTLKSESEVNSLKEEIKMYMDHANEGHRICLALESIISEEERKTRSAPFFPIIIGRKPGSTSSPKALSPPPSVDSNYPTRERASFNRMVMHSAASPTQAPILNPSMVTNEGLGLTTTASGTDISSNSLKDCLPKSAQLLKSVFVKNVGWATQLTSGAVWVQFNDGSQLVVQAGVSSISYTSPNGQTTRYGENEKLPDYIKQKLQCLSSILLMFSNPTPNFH
# Assay: affinity purification with mass spectrometry; Flag-PLK4 IP, elution fractions resolved by SDS-PAGE, gel slices digested with trypsin, nanoLC-ESI-MS/MS, MASCOT search against SwissProt human
row,Substance,binding
1,"CEP152, endogenous (from UniProt O94986 1-1710)",binds
2,"DCAF1 (VprBP), endogenous (from UniProt Q9Y4B6 1-1507)",binds
3,"DCAF5, endogenous (from UniProt Q96JK2 1-942)",binds
4,"DDB1 (DNA damage-binding protein 1), endogenous (from UniProt Q16531 1-1140)",binds
5,"β-TrCP, endogenous (human (endogenous in HEK293T))",binds

# No constants are given. Whether binding was seen depends on the method and setting. In cells and extracts the contact can be indirect. A yes stands for co-enrichment or nearness to the bait. Other partners may have been found. Where a sequence is shown, tags or fusion partners need not be part of it.
